Assay results published in US20220259295A1 (INSERM INSTITUT NATIONAL DE LA SANT ET DE LA RECHERCHE M …, published 2022).
No constants are given. Whether binding was seen depends on the method and setting. Some binding calls cover weakened binding; strength is not graded here.

T1: human protease nexin-1 (human) (UniProt P07093)
T1 sequence (looked up): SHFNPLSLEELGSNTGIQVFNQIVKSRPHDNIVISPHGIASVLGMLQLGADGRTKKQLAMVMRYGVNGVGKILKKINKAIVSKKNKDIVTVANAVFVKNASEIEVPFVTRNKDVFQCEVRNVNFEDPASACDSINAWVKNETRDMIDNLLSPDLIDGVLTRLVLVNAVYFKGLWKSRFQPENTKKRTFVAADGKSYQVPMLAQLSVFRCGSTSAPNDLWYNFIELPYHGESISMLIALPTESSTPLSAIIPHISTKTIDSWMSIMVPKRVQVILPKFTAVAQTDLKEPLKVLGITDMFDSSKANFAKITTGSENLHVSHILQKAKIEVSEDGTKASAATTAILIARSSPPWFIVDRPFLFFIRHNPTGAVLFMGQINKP

T2: murine protease nexin-1 (murine) (UniProt Q07235)
T2 sequence (looked up): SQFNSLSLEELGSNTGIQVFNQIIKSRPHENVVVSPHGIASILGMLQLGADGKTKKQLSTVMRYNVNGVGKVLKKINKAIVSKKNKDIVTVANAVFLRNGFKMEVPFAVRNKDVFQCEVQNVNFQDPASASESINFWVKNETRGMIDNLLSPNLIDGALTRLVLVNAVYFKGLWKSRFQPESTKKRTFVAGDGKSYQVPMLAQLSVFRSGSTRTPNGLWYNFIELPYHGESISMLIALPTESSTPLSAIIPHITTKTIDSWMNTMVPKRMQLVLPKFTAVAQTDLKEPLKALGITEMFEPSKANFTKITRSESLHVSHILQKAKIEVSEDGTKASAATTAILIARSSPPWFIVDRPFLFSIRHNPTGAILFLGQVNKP


Assays:
[1] = target: T1, human protease nexin-1 (human); experiment: non-adsorbed phage ELISA, phage on coated antigen, anti-M13 detection
[2] = target: T1, human protease nexin-1 (human); experiment: ELISA, 0.5 µg PN-1 coated per well, VHH 0.3 to 20 µg/mL, anti-cMyc detection
[3] = target: T1, human protease nexin-1 (human); experiment: ELISA, 0.5 µg PN-1 coated per well, bivalent VHH 0.3 to 20 µg/mL, anti-6xHis detection
[4] = target: T2, murine protease nexin-1 (murine); experiment: as above

Row | Binder | binding [1] | binding [2] | binding [3] | binding [4]
1 | B11 (VHH, Monovalent VHH from the synthetic hs2dAb library, made in E. coli WK6, purified by its His tag, detected by anti-cMyc or anti-6xHis; also called VHH B11; BI 1; not shown: cMyc tag and 6xHis tag (pHEN2 vector)) VHH: EVQLQASGGGFVQPGGSLRLSCAASGSTWFREIMGWFRQAPGKEREFVSAISSDPTWHAYYADSVKGRFTISRDNSKNTVYLQMNSLRAEDTATYYCAPLAGTESIHWWDPWHESSYWGQGTQVTVSS | binds | binds | – | –
2 | F06 (VHH, Monovalent VHH from the synthetic hs2dAb library; His-tagged, detected by anti-cMyc or anti-6xHis; also called VHH F06; single domain antibody F06; not shown: cMyc tag and 6xHis tag (pHEN2 vector)) VHH: EVQLQASGGGFVQPGGSLRLSCAASGDTWSLEIMGWFRQAPGKEREFVSAISSEDGWHAYYADSVKGRFTISRDNSKNTVYLQMNSLRAEDTATYYCAKIENWIQAVEGEMSDYWGQGTQVTVSS | binds | binds | – | –
3 | A08 (VHH, Monovalent VHH from the synthetic hs2dAb library; His-tagged, detected by anti-cMyc or anti-6xHis; also called VHH A08; single domain antibody A08; not shown: cMyc tag and 6xHis tag (pHEN2 vector)) VHH: EVQLQASGGGFVQPGGSLRLSCAASGYYSYSSTMGWFRQAPGKEREFVSAISFYSDMAHYYADSVKGRFTISRDNSKNTVYLQMNSLRAEDTATYYCAAFSKLGKIKYWGQGTQVTVSS | binds | binds | – | –
4 | B11-Bv (VHH, Bivalent (monoparatopic) tandem of two B11 VHHs; also called bivalent hybribody B11-Bv; bivalent VHH B11bv) EVQLQASGGGFVQPGGSLRLSCAASGSTWFREIMGWFRQAPGKEREFVSAISSDPTWHAYYADSVKGRFTISRDNSKNTVYLQMNSLRAEDTATYYCAPLAGTESIHWWDPWHESSYWGQGTQVTVSSAAAEVQLQASGGGFVQPGGSLRLSCAASGSTWFREIMGWFRQAPGKEREFVSAISSDPTWHAYYADSVKGRFTISRDNSKNTVYLQMNSLRAEDTATYYCAPLAGTESIHWWDPWHESSYWGQGTQVTVSSHHHHHH | – | – | binds | binds
5 | B11-F06 (VHH, Bivalent (biparatopic) tandem B11-linker-F06; also called bivalent hybribody B11-F06; bivalent VHH B11F06) EVQLQASGGGFVQPGGSLRLSCAASGSTWFREIMGWFRQAPGKEREFVSAISSDPTWHAYYADSVKGRFTISRDNSKNTVYLQMNSLRAEDTATYYCAPLAGTESIHWWDPWHESSYWGQGTQVTVSSGGGSGGGSGGGSGGGSEVQLQASGGGFVQPGGSLRLSCAASGDTWSLEIMGWFRQAPGKEREFVSAISSEDGWHAYYADSVKGRFTISRDNSKNTVYLQMNSLRAEDTATYYCAKIENWIQAVEGEMSDYWGQGTQVTVSSHHHHHH | – | – | binds | binds
6 | B11-A08 (VHH, Bivalent (biparatopic) tandem B11-linker-A08; also called bivalent hybribody B11-A08; bivalent VHH B11A08) EVQLQASGGGFVQPGGSLRLSCAASGSTWFREIMGWFRQAPGKEREFVSAISSDPTWHAYYADSVKGRFTISRDNSKNTVYLQMNSLRAEDTATYYCAPLAGTESIHWWDPWHESSYWGQGTQVTVSSGGGSGGGSGGGSGGGSEVQLQASGGGFVQPGGSLRLSCAASGYYSYSSTMGWFRQAPGKEREFVSAISFYSDMAHYYADSVKGRFTISRDNSKNTVYLQMNSLRAEDTATYYCAAFSKLGKIKYWGQGTQVTVSSHHHHHH | – | – | binds | binds
